According to PMC4937518:
These are yes or no findings as the source states them, for the method shown. For some of these results: Binding seen in cells or lysates may run through a third protein. Some results given as binding are weak or reduced against the parent protein; the word gives no strength.

T1: aspartate beta-hydroxylase (ASPH) (human (endogenous in U2OS)) (UniProt Q12797)
T1 sequence: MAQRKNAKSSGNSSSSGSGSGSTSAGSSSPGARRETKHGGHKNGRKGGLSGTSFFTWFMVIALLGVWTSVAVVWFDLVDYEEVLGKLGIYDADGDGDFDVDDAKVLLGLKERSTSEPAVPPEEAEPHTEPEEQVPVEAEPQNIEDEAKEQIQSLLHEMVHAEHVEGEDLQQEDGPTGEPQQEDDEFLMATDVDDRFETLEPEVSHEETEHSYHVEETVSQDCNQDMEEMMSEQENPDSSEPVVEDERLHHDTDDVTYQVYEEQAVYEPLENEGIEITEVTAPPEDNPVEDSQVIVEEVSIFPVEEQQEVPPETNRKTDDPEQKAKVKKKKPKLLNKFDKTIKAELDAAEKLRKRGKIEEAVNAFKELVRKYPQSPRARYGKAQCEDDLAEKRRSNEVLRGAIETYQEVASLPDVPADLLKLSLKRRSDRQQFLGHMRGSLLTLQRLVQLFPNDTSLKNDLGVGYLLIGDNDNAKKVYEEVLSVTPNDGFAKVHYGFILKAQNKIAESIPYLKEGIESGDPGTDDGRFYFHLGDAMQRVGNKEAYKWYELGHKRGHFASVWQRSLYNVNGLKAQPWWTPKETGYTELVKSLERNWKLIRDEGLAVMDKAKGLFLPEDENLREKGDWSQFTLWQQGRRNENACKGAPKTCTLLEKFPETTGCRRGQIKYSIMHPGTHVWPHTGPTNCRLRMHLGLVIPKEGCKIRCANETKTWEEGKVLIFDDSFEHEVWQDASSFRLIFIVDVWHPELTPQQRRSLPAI

B1: SNAP23 (protein, UniProt O00161 1-211)
chain: MDNLSSEEIQQRAHQITDESLESTRRILGLAIESQDAGIKTITMLDEQKEQLNRIEEGLDQINKDMRETEKTLTELNKCCGLCVCPCNRTKNFESGKAYKTTWGDGGENSPCNVVSKQPGPVTNGQLQQPTTGAASGGYIKRITNDAREDEMEENLTQVGSILGNLKDMALNIGNEIDAQNPQIKRITDKADTNRDRIDIANARAKKLIDS
B2: mesoderm development candidate 2 (MESDC2) (protein, UniProt Q14696 34-234)
chain: AEGSPGTPDESTPPPRKKKKDIRDYNDADMARLLEQWEKDDDIEEGDLPEHKRPSAPVDFSKIDPSKPESILKMTKKGKTLMMFVTVSGSPTEKETEEITSLWQGSLFNANYDVQRFIVGSDRAIFMLRDGSYAWEIKDFLVGQDRCADVTLEGQVYPGKGGGSKEKNKTKQDKGKKKKEGDLKSRSSKEENRAGNKREDL

Legend:
[1] = biological target: STX4 (human (endogenous in U2OS)) (UniProt Q12846); assay: cross-linking + SEC; protein correlation profiling: U2OS cells crosslinked in vivo with 6% formaldehyde (30 min, room temperature), lysed in 4% SDS with TCEP, denaturing SEC (BioBasic SEC1000, 0.2% SDS, 100 mM NaCl, 10 mM NaPO4 pH 6.0, 30 °C), 48 fractions, crosslinks reversed by heat, LC-MS/MS, LFQ elution profiles, n = 3
[2] = biological target: T1, aspartate beta-hydroxylase (ASPH) (human (endogenous in U2OS)); assay: as above
[3] = biological target: mesoderm development candidate 2 (MESDC2) (human (endogenous in U2OS)) (UniProt Q14696); assay: SEC; protein correlation profiling of native (not crosslinked) U2OS cell extract, 40 fractions, LC-MS/MS; RAW files of the authors' previous native SEC analysis (ref. 6) analysed again here together with the crosslinked data set
[4] = biological target: T1, aspartate beta-hydroxylase (ASPH) (human (endogenous in U2OS)); assay: as above

Row | Binder | binding [1] | binding [2] | binding [3] | binding [4]
1 | B1 | binds |  |  | 
2 | B2 |  | binds weakly | no binding | no binding (condition: native extract, not crosslinked)
